Publication PMC11698316
No constants are given. Whether binding was seen depends on the method and setting. In cells and extracts the contact can be indirect. Some entries that bind do so weakly or less than the wild type.

Amino acid sequences for entries named in this document (tags omitted). A change or cut given only in a name is not applied to a line headed by its entry. Chains listed by the source or under a name are the forms on record and can include a tag or linker.
0N4R wild-type human tau (P10636, form named): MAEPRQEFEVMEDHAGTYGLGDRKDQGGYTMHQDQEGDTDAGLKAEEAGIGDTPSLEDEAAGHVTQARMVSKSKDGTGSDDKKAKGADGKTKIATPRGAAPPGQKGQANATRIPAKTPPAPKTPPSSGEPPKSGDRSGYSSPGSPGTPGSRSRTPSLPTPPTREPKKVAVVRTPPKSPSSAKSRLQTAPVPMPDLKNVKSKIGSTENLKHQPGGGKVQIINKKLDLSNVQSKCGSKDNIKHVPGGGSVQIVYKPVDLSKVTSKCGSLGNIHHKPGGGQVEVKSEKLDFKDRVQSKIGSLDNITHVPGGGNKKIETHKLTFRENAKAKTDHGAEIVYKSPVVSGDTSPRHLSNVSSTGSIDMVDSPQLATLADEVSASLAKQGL
UniProt O35465: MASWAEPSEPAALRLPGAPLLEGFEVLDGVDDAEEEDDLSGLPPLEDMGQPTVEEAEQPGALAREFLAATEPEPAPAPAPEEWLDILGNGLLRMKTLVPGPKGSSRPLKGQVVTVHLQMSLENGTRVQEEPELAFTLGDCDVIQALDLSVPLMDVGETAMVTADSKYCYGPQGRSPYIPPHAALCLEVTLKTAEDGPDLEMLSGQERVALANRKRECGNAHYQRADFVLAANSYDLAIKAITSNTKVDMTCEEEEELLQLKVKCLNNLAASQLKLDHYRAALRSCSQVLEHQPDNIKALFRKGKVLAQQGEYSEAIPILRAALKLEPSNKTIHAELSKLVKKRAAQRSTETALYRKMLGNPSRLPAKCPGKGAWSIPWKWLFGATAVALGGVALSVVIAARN

Target: 0N4R wild-type human tau (human) (UniProt P10636)
Assay: co-IP; 500 ug lysate of stable HT22 cells (150 mM NaCl, 50 mM Tris-HCl, 1 mM EDTA, 1 mM EGTA, 0.5% NP-40, pH 7.4); rabbit anti-tau (DAKO tau) or rabbit IgG control overnight at 4°C, protein A/G magnetic agarose beads 6 h at 4°C; blot probed with mouse anti-FKBP8

- binding: binds
Substance: FK506-binding protein prolyl isomerase 8 (FKBP8/FKBP38) (from UniProt O35465 1-402)
